Laboratory results: the supplement of paper PMC10849652
The list shows a part of the results.

Chains of the proteins cited; added tags and fusions are not shown. Lines headed by an entry give the natural chain unless they say otherwise; changes in a name come on top.
UniProt Q9Y6V7: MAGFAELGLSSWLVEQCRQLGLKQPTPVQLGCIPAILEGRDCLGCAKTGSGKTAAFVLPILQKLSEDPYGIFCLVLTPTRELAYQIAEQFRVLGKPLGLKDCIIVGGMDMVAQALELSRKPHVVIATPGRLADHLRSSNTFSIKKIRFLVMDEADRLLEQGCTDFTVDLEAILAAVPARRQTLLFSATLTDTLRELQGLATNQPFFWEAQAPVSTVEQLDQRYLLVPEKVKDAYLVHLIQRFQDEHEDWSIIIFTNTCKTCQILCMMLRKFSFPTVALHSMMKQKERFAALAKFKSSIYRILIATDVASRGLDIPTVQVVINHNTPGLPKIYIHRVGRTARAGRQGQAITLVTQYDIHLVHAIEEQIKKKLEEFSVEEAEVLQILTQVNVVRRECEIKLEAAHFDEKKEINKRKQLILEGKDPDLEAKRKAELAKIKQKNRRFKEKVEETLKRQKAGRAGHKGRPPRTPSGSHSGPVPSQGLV
UniProt Q5TDH0: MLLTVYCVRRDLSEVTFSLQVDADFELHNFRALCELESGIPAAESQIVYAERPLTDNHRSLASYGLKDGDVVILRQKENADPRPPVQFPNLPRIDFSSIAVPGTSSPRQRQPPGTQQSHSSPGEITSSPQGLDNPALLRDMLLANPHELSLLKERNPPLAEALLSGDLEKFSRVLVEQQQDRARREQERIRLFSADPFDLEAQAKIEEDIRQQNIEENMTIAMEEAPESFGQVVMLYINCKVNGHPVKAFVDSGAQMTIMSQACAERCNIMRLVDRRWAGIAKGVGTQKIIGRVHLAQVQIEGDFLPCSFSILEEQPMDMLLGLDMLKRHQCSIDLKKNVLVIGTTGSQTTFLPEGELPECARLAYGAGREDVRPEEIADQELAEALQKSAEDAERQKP
UniProt Q15398: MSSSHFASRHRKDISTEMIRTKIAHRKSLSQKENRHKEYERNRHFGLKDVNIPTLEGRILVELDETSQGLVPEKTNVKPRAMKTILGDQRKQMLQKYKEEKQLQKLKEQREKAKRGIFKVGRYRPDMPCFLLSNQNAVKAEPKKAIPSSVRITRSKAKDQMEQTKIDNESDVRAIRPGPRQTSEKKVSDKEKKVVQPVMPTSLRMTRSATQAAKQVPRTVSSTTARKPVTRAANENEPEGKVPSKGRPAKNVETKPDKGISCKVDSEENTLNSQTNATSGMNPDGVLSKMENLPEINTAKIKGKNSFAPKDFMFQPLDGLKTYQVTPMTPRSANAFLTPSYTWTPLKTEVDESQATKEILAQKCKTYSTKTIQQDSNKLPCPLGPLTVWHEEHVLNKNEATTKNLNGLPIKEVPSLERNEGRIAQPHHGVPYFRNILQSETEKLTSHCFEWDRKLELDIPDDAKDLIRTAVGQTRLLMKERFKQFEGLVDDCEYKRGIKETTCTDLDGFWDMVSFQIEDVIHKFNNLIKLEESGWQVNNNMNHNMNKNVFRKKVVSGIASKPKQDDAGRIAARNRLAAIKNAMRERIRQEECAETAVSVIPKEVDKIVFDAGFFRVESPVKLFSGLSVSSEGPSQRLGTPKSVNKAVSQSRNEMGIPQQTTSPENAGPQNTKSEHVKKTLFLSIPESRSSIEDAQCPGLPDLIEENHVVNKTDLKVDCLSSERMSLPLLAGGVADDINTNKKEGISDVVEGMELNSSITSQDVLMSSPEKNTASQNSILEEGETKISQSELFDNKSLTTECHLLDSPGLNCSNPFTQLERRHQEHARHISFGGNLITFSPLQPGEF
UniProt Q9NR30: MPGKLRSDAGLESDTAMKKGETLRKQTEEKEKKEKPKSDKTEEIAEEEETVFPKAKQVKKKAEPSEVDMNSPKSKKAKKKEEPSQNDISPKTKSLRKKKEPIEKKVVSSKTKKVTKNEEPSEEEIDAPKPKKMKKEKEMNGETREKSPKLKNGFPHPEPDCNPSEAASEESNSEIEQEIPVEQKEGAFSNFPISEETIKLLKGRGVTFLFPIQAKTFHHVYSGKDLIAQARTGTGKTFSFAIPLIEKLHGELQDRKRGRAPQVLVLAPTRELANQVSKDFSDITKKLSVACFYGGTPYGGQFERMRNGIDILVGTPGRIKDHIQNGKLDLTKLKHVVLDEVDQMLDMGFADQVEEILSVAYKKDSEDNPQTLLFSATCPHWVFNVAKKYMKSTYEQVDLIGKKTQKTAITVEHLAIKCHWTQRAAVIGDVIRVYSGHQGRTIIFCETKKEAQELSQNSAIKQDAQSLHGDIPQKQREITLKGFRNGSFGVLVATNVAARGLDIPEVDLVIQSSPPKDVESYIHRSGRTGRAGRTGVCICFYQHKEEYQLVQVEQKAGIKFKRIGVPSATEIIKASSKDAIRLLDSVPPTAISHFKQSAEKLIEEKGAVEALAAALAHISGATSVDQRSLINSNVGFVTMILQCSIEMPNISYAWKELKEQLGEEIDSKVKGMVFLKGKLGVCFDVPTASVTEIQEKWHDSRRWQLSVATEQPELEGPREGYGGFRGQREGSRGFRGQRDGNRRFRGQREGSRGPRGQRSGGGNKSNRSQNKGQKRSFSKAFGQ
UniProt Q8IYB7: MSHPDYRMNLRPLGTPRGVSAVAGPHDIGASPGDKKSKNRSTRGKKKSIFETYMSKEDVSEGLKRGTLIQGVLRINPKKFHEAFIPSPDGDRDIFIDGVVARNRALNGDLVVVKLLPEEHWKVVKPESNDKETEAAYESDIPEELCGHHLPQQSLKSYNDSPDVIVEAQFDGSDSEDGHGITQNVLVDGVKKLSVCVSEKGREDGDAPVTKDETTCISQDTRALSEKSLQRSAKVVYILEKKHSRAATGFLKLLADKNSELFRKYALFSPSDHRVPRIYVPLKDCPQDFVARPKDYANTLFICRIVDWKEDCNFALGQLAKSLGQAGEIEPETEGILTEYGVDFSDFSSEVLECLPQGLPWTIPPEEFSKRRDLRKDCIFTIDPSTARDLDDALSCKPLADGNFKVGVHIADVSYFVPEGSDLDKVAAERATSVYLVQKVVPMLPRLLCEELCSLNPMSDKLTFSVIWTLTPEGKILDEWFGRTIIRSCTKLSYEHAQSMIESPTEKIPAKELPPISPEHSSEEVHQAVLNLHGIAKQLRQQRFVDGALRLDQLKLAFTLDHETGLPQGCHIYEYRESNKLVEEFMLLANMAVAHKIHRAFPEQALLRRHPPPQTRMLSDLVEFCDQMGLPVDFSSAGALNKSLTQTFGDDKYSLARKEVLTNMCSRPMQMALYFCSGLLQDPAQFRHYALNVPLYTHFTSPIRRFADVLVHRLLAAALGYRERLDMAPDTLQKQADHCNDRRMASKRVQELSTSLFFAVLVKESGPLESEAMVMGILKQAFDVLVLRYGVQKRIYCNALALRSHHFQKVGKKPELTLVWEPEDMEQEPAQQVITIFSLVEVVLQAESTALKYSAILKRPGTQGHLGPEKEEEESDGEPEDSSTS
UniProt O75907: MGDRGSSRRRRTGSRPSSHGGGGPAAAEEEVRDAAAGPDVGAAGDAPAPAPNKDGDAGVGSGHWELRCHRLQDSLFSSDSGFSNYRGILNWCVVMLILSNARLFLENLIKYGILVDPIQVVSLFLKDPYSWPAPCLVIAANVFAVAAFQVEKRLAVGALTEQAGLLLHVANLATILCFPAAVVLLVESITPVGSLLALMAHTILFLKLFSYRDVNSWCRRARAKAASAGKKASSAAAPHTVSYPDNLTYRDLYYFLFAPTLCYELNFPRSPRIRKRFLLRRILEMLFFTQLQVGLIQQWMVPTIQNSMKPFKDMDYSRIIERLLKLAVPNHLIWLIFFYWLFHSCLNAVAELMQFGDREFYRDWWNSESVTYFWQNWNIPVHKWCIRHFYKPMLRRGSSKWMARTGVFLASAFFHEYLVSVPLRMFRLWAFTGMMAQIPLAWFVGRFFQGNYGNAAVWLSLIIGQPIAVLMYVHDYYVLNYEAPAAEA
UniProt Q9Y394: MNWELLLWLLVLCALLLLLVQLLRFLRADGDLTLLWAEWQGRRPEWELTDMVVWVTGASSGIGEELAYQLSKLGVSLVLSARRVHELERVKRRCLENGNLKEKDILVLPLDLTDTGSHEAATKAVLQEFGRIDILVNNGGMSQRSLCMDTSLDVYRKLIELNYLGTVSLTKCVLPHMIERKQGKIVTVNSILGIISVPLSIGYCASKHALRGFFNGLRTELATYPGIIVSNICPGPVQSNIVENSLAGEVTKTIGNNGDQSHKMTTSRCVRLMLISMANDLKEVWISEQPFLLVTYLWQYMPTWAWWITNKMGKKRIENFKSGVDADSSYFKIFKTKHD
UniProt P09622, whole entry, looked up: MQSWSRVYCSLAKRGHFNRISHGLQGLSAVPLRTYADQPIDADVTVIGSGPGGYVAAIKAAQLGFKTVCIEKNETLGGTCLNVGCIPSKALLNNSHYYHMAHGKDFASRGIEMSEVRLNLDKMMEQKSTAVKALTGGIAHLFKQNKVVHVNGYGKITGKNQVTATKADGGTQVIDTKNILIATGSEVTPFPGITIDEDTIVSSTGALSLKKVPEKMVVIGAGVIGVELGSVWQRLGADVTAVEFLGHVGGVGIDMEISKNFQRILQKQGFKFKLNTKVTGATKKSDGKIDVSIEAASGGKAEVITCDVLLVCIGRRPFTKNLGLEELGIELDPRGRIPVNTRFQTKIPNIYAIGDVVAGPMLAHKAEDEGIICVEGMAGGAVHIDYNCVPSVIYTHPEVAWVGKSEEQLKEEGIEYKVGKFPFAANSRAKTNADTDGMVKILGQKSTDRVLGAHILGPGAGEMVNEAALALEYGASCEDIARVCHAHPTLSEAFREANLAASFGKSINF
UniProt Q6P158: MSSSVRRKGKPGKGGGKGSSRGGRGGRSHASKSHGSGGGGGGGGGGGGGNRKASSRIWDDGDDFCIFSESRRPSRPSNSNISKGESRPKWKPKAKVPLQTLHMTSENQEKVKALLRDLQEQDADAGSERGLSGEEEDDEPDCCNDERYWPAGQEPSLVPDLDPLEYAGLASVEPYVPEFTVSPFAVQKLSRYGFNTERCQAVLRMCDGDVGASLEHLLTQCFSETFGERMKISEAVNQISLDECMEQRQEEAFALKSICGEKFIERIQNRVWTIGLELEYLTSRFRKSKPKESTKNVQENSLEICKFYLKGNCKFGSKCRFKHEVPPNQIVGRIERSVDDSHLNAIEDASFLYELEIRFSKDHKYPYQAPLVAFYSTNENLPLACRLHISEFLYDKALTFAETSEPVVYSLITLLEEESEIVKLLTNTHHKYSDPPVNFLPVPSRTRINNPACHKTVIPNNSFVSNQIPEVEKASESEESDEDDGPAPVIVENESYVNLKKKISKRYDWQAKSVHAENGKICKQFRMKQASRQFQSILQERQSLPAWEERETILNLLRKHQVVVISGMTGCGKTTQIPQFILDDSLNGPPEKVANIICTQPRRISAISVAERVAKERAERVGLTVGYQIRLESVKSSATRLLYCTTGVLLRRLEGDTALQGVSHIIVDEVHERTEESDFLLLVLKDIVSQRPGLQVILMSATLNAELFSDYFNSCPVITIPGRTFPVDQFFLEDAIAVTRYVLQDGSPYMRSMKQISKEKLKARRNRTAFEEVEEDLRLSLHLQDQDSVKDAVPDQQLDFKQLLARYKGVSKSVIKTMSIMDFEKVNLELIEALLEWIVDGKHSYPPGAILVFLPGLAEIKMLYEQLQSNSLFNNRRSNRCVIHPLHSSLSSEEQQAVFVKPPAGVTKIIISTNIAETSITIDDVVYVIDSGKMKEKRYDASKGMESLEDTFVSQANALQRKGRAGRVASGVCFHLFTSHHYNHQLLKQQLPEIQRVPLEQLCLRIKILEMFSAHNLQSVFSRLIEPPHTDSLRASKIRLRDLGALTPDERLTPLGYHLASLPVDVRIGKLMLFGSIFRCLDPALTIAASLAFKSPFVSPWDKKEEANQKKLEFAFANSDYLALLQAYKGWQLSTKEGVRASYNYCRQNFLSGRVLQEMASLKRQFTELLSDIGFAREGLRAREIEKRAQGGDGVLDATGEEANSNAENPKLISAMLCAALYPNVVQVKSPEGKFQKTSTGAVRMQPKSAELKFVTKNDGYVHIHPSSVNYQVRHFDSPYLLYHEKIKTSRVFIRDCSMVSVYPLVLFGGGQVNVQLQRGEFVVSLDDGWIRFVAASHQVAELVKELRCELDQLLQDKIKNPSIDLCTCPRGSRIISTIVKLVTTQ

Assays:
Assay in all cases: log2 fold change, soluble protein after heating vs DMSO (PISA); higher = thermal stabilisation; K562 cells, 10 uM, 30 min; active = over 0.2 and 3.5 SD of the protein, either way, in both replicates (recomputed)
[1] = compound: CC1=C(C=C(C=C1)NC(=O)C2=CC(=CC=C2)C(C)(C)C#N)NC3=CC4=C(C=C3)N=CN(C4=O)C
Outline: (§1)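 K562 cells (2×10^6 cells/mL) were treated with 10 μM compound for 30 min, and aliquots were heated for 3 min over 48°C-58°C. Pooled aliquots were extracted in PBS with 0.5% NP-40 at 4°C, and the supernatant after 21,000xg for 90 min was measured by TMTpro 16plex LC-MS/MS with channel sums equalised. Reported thermal stability, relative to control samples and from duplicates, is a log2 fold change.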

[2] = compound: CC1=C(C=C(C=C1)NC(=O)C2=CC(=CC=C2)N(C)C)NC(=O)C3=CC=C(C=C3)O
Outline: as §1

[3] = compound: CC1=CC=C(C=C1)SC2=C3C=C(SC3=CN=C2)C(=O)N
Outline: as §1

[4] = compound: CC1=NC(=CC=C1)C2=C(N=C(N2)C(C)(C)C)C3=CC4=NC=CN=C4C=C3
Outline: as §1

Nexturastat A = compound: CCCCN(Cc1ccc(C(=O)NO)cc1)C(=O)Nc1ccccc1 [Nexturastat A]
Outline: as §1

vemurafenib = compound: CCCS(=O)(=O)Nc1ccc(F)c(C(=O)c2c[nH]c3ncc(-c4ccc(Cl)cc4)cc23)c1F [vemurafenib]
Outline: as §1

[5] = compound: CCCS(=O)(=O)Nc1ccc(F)c(C(=O)c2c[nH]c3ncc(Cl)cc23)c1F
Outline: as §1

[6] = compound: CCCc1cc(C)[nH]c(=O)c1CNC(=O)c1cc(-c2ccnc(N3CCN(C)CC3)c2)cc2c1cnn2C(C)C
Outline: as §1

givinostat = compound: CCN(CC)Cc1ccc2cc(COC(=O)Nc3ccc(C(=O)NO)cc3)ccc2c1 [givinostat]
Outline: as §1

barasertib = compound: CCN(CCCOc1ccc2c(Nc3cc(CC(=O)Nc4cccc(F)c4)[nH]n3)ncnc2c1)CCOP(=O)(O)O [barasertib]
Outline: as §1

Measured: log2 fold change

DDX49 (UniProt Q9Y6V7)
inactive: [1] 0.063 | [2] -0.044 | [3] -0.082 | [4] -0.056 | Nexturastat A 0.145 | vemurafenib 0.007 | [5] 0 | [6] 0.059 | givinostat -0.001 | barasertib -0.074

DDI2 isoform 3 (UniProt Q5TDH0)
inactive: [1] -0.004 | [2] -0.012 | [3] -0.008 | [4] 0.008 | Nexturastat A 0.004 | vemurafenib 0.032 | [5] 0.012 | [6] 0.001 | givinostat -0.013 | barasertib 0.008

DLGAP5 (UniProt Q15398)
inactive: [1] 0.035 | [2] -0.033 | [3] -0.018 | [4] -0.058 | Nexturastat A 0.074 | vemurafenib 0.041 | [5] 0.04 | [6] -0.031 | givinostat 0.04 | barasertib 0.063

DDX21 (UniProt Q9NR30)
inactive: [1] -0.004 | [2] -0.051 | [3] -0.092 | [4] 0.035 | Nexturastat A 0.285 | vemurafenib -0.064 | [5] 0.167 | [6] 0.149 | givinostat 0.194 | barasertib -0.02

DIS3L2 (UniProt Q8IYB7)
inactive: [1] -0.04 | [2] 0.019 | [3] -0.004 | [4] -0.052 | Nexturastat A 0.076 | vemurafenib 0.017 | [5] -0.062 | [6] 0 | givinostat -0.004 | barasertib 0

DGAT1 (UniProt O75907)
inactive: [1] 0.053 | [2] -0.06 | [3] 0.011 | [4] -0.017 | Nexturastat A 0.001 | vemurafenib 0.057 | [5] 0.13 | [6] -0.071 | givinostat 0.018 | barasertib -0.078

Random excerpt: 2 entries already listed.
DGAT1 (UniProt O75907)
inactive: [1] 0.053 | [2] -0.06 | [3] 0.011 | [4] -0.017 | Nexturastat A 0.001 | vemurafenib 0.057 | [5] 0.13 | [6] -0.071 | givinostat 0.018 | barasertib -0.078

DIS3L2 (UniProt Q8IYB7)
inactive: [1] -0.04 | [2] 0.019 | [3] -0.004 | [4] -0.052 | Nexturastat A 0.076 | vemurafenib 0.017 | [5] -0.062 | [6] 0 | givinostat -0.004 | barasertib 0

Following part

DHX36 (UniProt Q9H2U1)
inactive: [1] 0.015 | [2] 0 | [3] -0.034 | [4] -0.033 | Nexturastat A 0.111 | vemurafenib 0.012 | [5] 0.02 | [6] -0.005 | givinostat -0.031 | barasertib -0.064

DNAH9 (UniProt Q9NYC9)
inactive: [1] -0.013 | [2] 0.019 | [3] 0.001 | [4] 0.067 | Nexturastat A -0.076 | vemurafenib -0.014 | [5] 0.019 | [6] 0.016 | givinostat -0.018 | barasertib 0

DMD (UniProt P11532)
inactive: [1] -0.004 | [2] 0.015 | [3] 0.014 | [4] -0.026 | Nexturastat A -0.073 | vemurafenib 0.041 | [5] 0.061 | [6] -0.023 | givinostat 0.028 | barasertib 0.038

DLGAP4 (UniProt Q9Y2H0)
inactive: [1] 0.014 | [2] 0.031 | [3] 0.022 | [4] 0.026 | Nexturastat A -0.006 | vemurafenib 0.004 | [5] -0.002 | [6] -0.013 | givinostat -0.003 | barasertib 0.049

DHRS7 (UniProt Q9Y394)
inactive: [1] 0.105 | [2] 0.008 | [3] -0.006 | [4] -0.029 | Nexturastat A 0.008 | vemurafenib 0.018 | [5] -0.02 | [6] -0.013 | givinostat -0.029 | barasertib -0.019

DLD (UniProt P09622)
inactive: [1] -0.045 | [2] 0.025 | [3] 0.008 | [4] 0.013 | Nexturastat A -0.058 | vemurafenib -0.021 | [5] -0.01 | [6] 0.029 | givinostat -0.06 | barasertib 0

DHX57 (UniProt Q6P158)
inactive: [1] 0.013 | [2] -0.01 | [3] -0.009 | [4] -0.055 | Nexturastat A 0.116 | vemurafenib 0.005 | [5] 0.011 | [6] 0.122 | givinostat -0.006 | barasertib -0.073
